# Laboratory results: PubChem BioAssay AID504784 (Drosophila RNAi Screening Center, 2011)
# Test: 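Search for regulators of lipid droplet storage in oleate-fed fly cells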 (primary screen)
# Cell system: Drosophila Kc167 embryonic cells
# Reagent: long dsRNA against Drosophila genes, about 250 ng dsRNA per well
# Time to read-out: 4 days
# Conditions: cells fed 400 µM oleic acid bound to BSA
# Measurement: 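Cells imaged and segmented; ratio of lipid droplet area to nuclear area, log-transformed, then normalised as a B-score over the screen; higher means more stored lipid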
# Reading the numbers: droplet/nuclear area B-score: higher = more stored lipid (overstorage)
# The deposit covers about 17,000 reagents; below is a random part of those with a known target gene and a result. 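Each column is one replicate's B-score; the combined score over replicates was not deposited, so single values may mislead.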 A plus sign joins genes that one reagent is predicted to hit.
target,dsRNA,"droplet/nuclear area B-score, replicate 1","droplet/nuclear area B-score, replicate 2","droplet/nuclear area B-score, replicate 3"
CG7407,DRSC11824,-0.248,0.131,-0.403
elB,DRSC01379,-0.658,0.922,
elB,DRSC03527,0.116,-0.606,
Nmt,DRSC11236,-1.05,1.19,
AANATL3,DRSC02089,1.56,-0.143,
Had2,DRSC05971,-1.2,1.39,
beat-IIIb,DRSC02435,-1.29,-1.18,
Adat1,DRSC03479,-0.387,-1.7,
fz2,DRSC10087,0.258,-1.21,0.683
fz2,DRSC11349,-0.954,-0.753,
Tpl94D,DRSC13593,0.0353,-0.916,
CG33080,DRSC18080,-0.489,-0.498,
CG33080,DRSC18081,-0.708,-1.76,
CG33080,DRSC18285,-0.0423,-0.337,
CG1703,DRSC19764,-0.68,-1.57,0.0125
CG7896,DRSC16335,4.51,0.688,
dpr6,DRSC09005,-2.03,-1.46,
dpr6,DRSC10162,-0.648,-1.34,
dpr6,DRSC10163,2.01,0.012,
CG3982,DRSC10394,-0.29,-0.00132,
CG3982,DRSC23139,-0.00268,-0.134,
CG12084,DRSC08247,-1.04,2.02,
OSCP1,DRSC06304,0.99,0.208,
GluRIIB,DRSC03335,-1.04,0.306,
zetaTry,DRSC07720,0.0586,2.49,
CG33769,DRSC11716,-0.75,-0.939,
CG11828,DRSC14394,1.61,2.53,
CG11828,DRSC22580,0.0733,-0.0327,
RpS10b,DRSC19561,-0.152,-0.269,
CG17742 (retired record),DRSC10285,-0.211,1.43,
CG17287,DRSC06659,-0.906,0.644,
Dhx15,DRSC06036,-3.37,-1.7,
shu,DRSC04484,-0.895,-1.78,

The list goes on; the last 8 above are carried over.
target,dsRNA,"droplet/nuclear area B-score, replicate 1","droplet/nuclear area B-score, replicate 2","droplet/nuclear area B-score, replicate 3"
CG33769,DRSC11716,-0.75,-0.939,
CG11828,DRSC14394,1.61,2.53,
CG11828,DRSC22580,0.0733,-0.0327,
RpS10b,DRSC19561,-0.152,-0.269,
CG17742 (retired record),DRSC10285,-0.211,1.43,
CG17287,DRSC06659,-0.906,0.644,
Dhx15,DRSC06036,-3.37,-1.7,
shu,DRSC04484,-0.895,-1.78,
CG6094,DRSC02927,2.48,3.29,-0.62
CG6094,DRSC22705,1.54,0.275,
CG17328,DRSC01927,0.155,0.422,-1.02
CG17328,DRSC22448,2.61,1.86,
Acsx1R,DRSC14339,0.436,0.421,
eEF1beta,DRSC07419,0.0512,-0.573,
RNaseX25,DRSC11259,-1.56,0.0823,
RluA-1,DRSC02240,-1.24,-1.98,
RluA-1,DRSC03060,-2.17,-0.986,
CG11670,DRSC14342,1.57,0.342,
trc,DRSC11406,0.105,-1.35,
CG32213 + CG12519 + 825-Oak + 1 more,DRSC09615,0.413,3.77,0.607
rdgB,DRSC20365,-0.419,-0.761,
mRpS26,DRSC10823,0.353,1.72,
CG32248,DRSC08102,1.64,0.744,
CR31822,DRSC01510,-0.265,1.1,
shot,DRSC05459,0.586,2.76,
shot,DRSC05460,-2.55,-0.92,
shot,DRSC07682,0.286,0.275,
bin3,DRSC04919,1.21,-1.64,
GC,DRSC08396,0.426,-0.933,
Zip89B,DRSC16128,-0.908,-1.28,
hpo,DRSC06065,3.51,-0.171,
CG10139,DRSC05972,0.016,0.604,
Dg,DRSC06718,-1.51,1.47,
phtf,DRSC05023,0.568,-0.58,
CG13039,DRSC09920,-0.685,0.0206,
CG7506,DRSC10860,-0.11,-1.63,
CG9095,DRSC20150,-0.262,-3.97,
Nedd4,DRSC11234,0.00065,0.244,
Nedd4,DRSC21548,0.391,1.91,
CG16711,DRSC10220,-0.765,0.0143,
rad (retired record),DRSC19687,-2.29,-0.917,0.03
rad (retired record),DRSC22865,1.99,0.107,
Nup214,DRSC04421,-1.1,-1.91,
rhea,DRSC11300,-0.888,-0.557,
CG15923,DRSC15129,-0.0537,-0.457,
Lst8,DRSC18262,-0.021,-0.0799,0.432
emb,DRSC03528,0.229,-0.86,
CG1440,DRSC17915,1.77,1.04,
siz,DRSC11622,0.208,-1.58,
siz,DRSC11689,1.82,-0.0577,
siz,DRSC11690,0.508,-2.04,
rgn,DRSC11609,-0.327,1.13,1.08
Usp7,DRSC18909,-0.221,0.548,
Usp7,DRSC19604,-1.51,0.204,0.84
Cyp28a5,DRSC03297,2.76,1.06,
Obp50c + Obp50b,DRSC05482,-0.0432,-0.59,
MICU3,DRSC13381,-0.362,0.0604,
MICU3,DRSC15613,0.383,1.26,
